Assay results from patent US20260116910A1, “POLYCYCLIC COMPOUNDS AND METHODS THEREOF” (HEPAITECH (BEIJING) BIOPHARMA TECHNOLOGY CO., LTD., priority 2021, published 2026).
At least one compound was matched to its structure with a doubt left.

Protein sequences, listed by entry. Tags and fused reporters are not part of them. Lines headed by an entry give the natural chain unless they say otherwise; changes in a name come on top.
UniProt Q96LA9: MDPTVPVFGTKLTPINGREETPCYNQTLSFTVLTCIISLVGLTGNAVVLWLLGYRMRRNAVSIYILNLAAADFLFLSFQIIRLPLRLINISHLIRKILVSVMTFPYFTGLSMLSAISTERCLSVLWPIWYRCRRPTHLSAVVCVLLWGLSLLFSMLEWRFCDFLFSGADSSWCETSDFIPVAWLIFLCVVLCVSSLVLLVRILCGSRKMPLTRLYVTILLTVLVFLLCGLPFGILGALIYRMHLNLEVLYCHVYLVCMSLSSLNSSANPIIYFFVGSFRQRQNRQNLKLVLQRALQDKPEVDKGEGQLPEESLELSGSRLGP

Molecular target: MRGPRX4 (Homo sapiens, UniProt Q96LA9)
Assay: MRGPRX4 activation, Fluo-8 Ca2+ FLIPR assay in HEK293T cells stably expressing MRGPRX4
Format: cell-based
Set-up: key: fluorescence change dF/F0
Description: In some embodiments, cells were cultured in poly-D-Lys coated blacked walled, clear-bottom 96-well microplates. HEK293T cells stably expressing MRGPRX4 were cultured in DMEM medium supplemented with 10% FBS and 1% PS, at 37° C. in a humidified atmosphere with 5% CO2. Cells were detached by centrifuging (1000 rpm, 3 min). The pellet was re-suspended in medium, and cell density was adjusted to about 1×10^6 cells/mL. 100 μL suspension was seeded to each well of a microplates (cell plate). Cells in the microplates were cultured overnight. In the following day, cells were grown to higher than 95% density in each well.
Ca^2+ fluorescent dye loading: Fluo-8 AM (Screen Quest Fluo-8 AM Calcium Assay Kit, AAT Bioquest, cat. #: 21083) was diluted in HHBS buffer and adjusted to 2 μM (dye buffer). Medium in each well was changed into 50 μL dye buffer carefully. After incubation for 40-60 min under room temperature, the dye buffer was changed into 50 μL HHBS buffer.
The concentration of solution should be determined according to the protocol settings and experimental needs (e.g., Log[M]=−4, −5, −6, −7, −8, and −9). Prepare 2× serial dilution series of compounds (at least 75 μL per well).
A fluorescent signal baseline was measured using FLIPR®Tetra for 30 s. Then 50 μL of the chemical solution would be added to the cell plate. The fluorescent signal would be measured for another 150 s.
Activity of each compound was calculated by the fluorescence change (dF/F0). Curves were fitted to obtain EC50 values. In some embodiments, at least 3 repeats were performed to obtain the average values. For assessment of a compound, gradient diluted solutions of different concentrations were used to treat cells and corresponding responses were used to fit sigmoid function and to derive EC50 in Origin. In some embodiments, assessed concentrations were or included about 10^−4, 10^−4.5, 10^−5, 10^−5.5, 10^−6, 10^−6.5, 10^−7, 10^−8, and/or 10^−9 M; for example, in many instances, assessed concentrations included about 10^−5, 10^−6, 10^−7 and 10^−8 M. In some embodiments, assessed concentrations were about 10^−4, 10^−4.5, 10^−5, 10^−5.5, 10^−6, 10^−7, 10^−8, and 10^−9 M. In some embodiments, assessed concentrations were about 10^−4, 10^−5, 10^−6, 10^−7, 10^−8, and 10^−9 M. In some embodiments, assessed concentrations were about 10^−4, 10^−4.5, 10^−5, 10^−5.5, 10^−6, and 10^−7 M. In some embodiments, assessed concentrations were about 2000000, 1000000, 500000, 250000, 125000, 62500, 31250, 15625, 7813, 3906 nM. […] In some embodiments, assessed concentrations were about 30000, 10000, 3333, 1111, 370, 123, 41, 14, 4.6, 1.5 nM.

## CC[C@H]1[C@@H](O)[C@@H]2[C@H](CC[C@]3(C)[C@@H]([C@H](C)CCC(=O)O)CC[C@@H]23)[C@@]2(C)CC[C@@H](O)C[C@@H]12 [OCA, obeticholic acid, reference compound]
E3-7, Conc. (Log[M]) −4
  MRGPRX4 activation, Ave.: 1.108
E3-7, Conc. (Log[M]) −4.5
  MRGPRX4 activation, Ave.: 0.351
E3-7, Conc. (Log[M]) −5
  MRGPRX4 activation, Ave.: −0.041
E3-7, Conc. (Log[M]) −5.5
  MRGPRX4 activation, Ave.: −0.014
E3-7, Conc. (Log[M]) −6
  MRGPRX4 activation, Ave.: −0.027
E3-7, Conc. (Log[M]) −7
  MRGPRX4 activation, Ave.: −0.014
